For one substance, binding results are on record in article PMC10899790, “A bromodomain-independent mechanism of gene regulation by the BET inhibitor JQ1: direct activation of nuclear receptor PXR” (Nucleic Acids Research, 2023).

The chains behind the UniProt entries cited, without tags or fusion partners. Residues count along the entry.
UniProt Q15788, residues 621-765: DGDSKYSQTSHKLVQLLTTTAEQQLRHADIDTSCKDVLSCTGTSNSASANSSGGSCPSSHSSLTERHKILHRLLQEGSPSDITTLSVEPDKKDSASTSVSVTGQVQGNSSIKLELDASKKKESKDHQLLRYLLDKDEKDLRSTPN

For the test, the target named is T1, SmBiT-PXR LBD (residues 139-434) (human) (UniProt O75469).
T1 sequence: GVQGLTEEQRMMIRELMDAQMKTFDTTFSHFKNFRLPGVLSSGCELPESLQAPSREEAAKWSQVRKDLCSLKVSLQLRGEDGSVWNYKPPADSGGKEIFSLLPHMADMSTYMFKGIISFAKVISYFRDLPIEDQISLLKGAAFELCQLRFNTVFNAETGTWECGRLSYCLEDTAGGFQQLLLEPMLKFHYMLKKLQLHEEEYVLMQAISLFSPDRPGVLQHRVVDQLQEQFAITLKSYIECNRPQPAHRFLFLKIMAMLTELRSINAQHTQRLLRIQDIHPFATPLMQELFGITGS
The experiment in a line: split reporter; NanoBiT in HepG2 cells co-transfected with SmBiT-PXR LBD and LgBiT-SRC-1; 100 nM T0901317 or 5 uM other compound for 30 min at RT; Nano-Glo Live Cell Assay System.

No constants are given. Whether binding was seen depends on the method and setting. Binding seen in cells or lysates may run through a third protein. Some binding calls cover weakened binding; strength is not graded here.

For the substance “LgBiT-tagged SRC-1 nuclear receptor interaction domain (amino acids 621-765) (from UniProt Q15788 621-765) (domain or fragment)”, the binding result was “binds”.
